Laboratory results reported in publication PMC13266999, “Designing Antibiotics with Inherent Resistance to Efflux as a Strategy to Revive Discovery against Multidrug-Resistant Pathogens” (Journal of Medicinal Chemistry, 2026).

Test system: NorA overexpressing strain NCTC 13616
Experiment: Reserpine growth (efflux inhibition) assay
Conditions: 0.5x MIC with vs without reserpine

O=C(O)c1cn(C2CC2)c2cc(N3CCNCC3)c(F)cc2c1=O [Ciprofloxacin, ciprofloxacin, reference compound] was tested, and the “efflux liability in reserpine assay” value was “CIP is a substrate of NorA”.
